Laboratory results published in patent US20190083436A1, “METHODS OF DIAGNOSING CANCER” (AGENCY FOR SCIENCE, TECHNOLOGY AND RESEARCH, priority 2016, published 2019).
At least one compound was matched to its structure with a doubt left.

Tested on: HCC cell lines
Experiment: Real-time cell proliferation (xCELLigence) of liver cancer cell lines treated with compounds
Type: cell-based
Conditions: all HCC cell lines examined; proliferation and mTOR pathway immunoblots

CO[C@H]1C[C@@H]2CC[C@@H](C)[C@@](O)(O2)C(=O)C(=O)N2CCCC[C@H]2C(=O)O[C@H]([C@H](C)C[C@@H]2CC[C@@H](O)[C@H](OC)C2)CC(=O)[C@H](C)/C=C(\C)[C@@H](O)[C@@H](OC)C(=O)[C@H](C)C[C@H](C)/C=C/C=C/C=C/1C [Rapamycin]
sensitivity of HCC cell lines to mTOR inhibitors: at least partially sensitive
